Laboratory results published in PubChem BioAssay AID493014 (National Center for Advancing Translational Sciences (NCATS), 2011).
Some of the results follow. Further columns of the screen follow, without active or inactive calls. Compounds called inactive in the main read-out are mostly missing here. Potencies come from curve fits of mixed quality, noted in brackets.

Test: qHTS Assay to Find Inhibitors of Chronic Active B-Cell Receptor Signaling
Conditions: ABC-DLBCL IkBa-CBG/CBR reporter, luminescence ratio (green luciferase fused to IkBa over red control in TMD8 lymphoma cells), 4 h; measured here: CBR red luminescence, cell number
Method in brief: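 Doxycycline induced both beetle luciferases in TMD8 lymphoma cells; IKK-driven degradation limits the IkappaBalpha-fused green signal, while red luminescence normalises for cell number and nonspecific effects. Compounds tested up to 46 uM, 4 hrs.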

SMILES | AC50
O=C(Nc1cccc(-c2nc3ncccc3o2)c1)c1ccccc1 | 10 µM [falling, single point]
O=C(NNC(=O)c1n[nH]c(=O)c2ccccc12)c1ccc(Br)cc1 | 0.447 µM [rising, full curve, poor fit]
COc1ccc(-n2cnc3cc(NCc4ccco4)ccc32)cc1 | 7.31 µM [rising, partial curve]
CCOC(=O)Cc1csc(NC(=O)CSc2ncnc3c2cnn3-c2ccccc2Cl)n1 | 11.2 µM [falling, partial curve]
CNCc1c(OCc2ccc(F)cc2)ccc2ccccc12 | 15.8 µM [falling, single point]
CCN(CC)Cc1ccccc1Sc1ccccc1 | 16.4 µM [rising, partial curve, poor fit]
O=C(Nc1ccon1)c1cccc(C(F)(F)F)c1 | 16.4 µM [falling, partial curve, poor fit]
CC(=O)c1sc(NC(=O)c2ccccc2F)nc1-c1ccccc1 | 2.51 µM [falling, full curve]
CCOCCCn1c(SCC(=O)N(C)C2CCS(=O)(=O)C2)nc2ccccc2c1=O (stereo not drawn) | 1.84 µM [rising, partial curve, poor fit]
CCOC(=O)c1ccc(NC(=O)N2CCc3ccccc3C2)cc1 | 2.51 µM [falling, full curve]
CC(C)C[C@H](CO)N(Cc1ccccc1)S(=O)(=O)N(Cc1ccccc1)[C@@H](CO)CC(C)C | 6.51 µM [falling, partial curve, poor fit]
Cc1onc(-c2ccccc2Cl)c1C(=O)OCC(=O)c1ccccc1 | 5.17 µM [rising, full curve]
O=c1cc(-c2ccncc2)oc2ccccc12 | 35.5 µM [falling, partial curve, poor fit]
O=C(O)c1cccc(N/N=C/C2=C(Cl)c3cc(Cl)ccc3SC2)c1 | 14.1 µM [falling, partial curve]
COc1ccc(C(=O)/C=C/c2ccc(OC)cc2OC)c(O)c1 | 10 µM [falling, partial curve, poor fit]
O=C(Nc1ccc(F)cc1)Nc1cc(OCC(F)(F)F)cc(OCC(F)(F)F)c1 | 20.6 µM [falling, single point]
O=C(NCc1ccco1)c1ccc2c(c1)N(Cc1ccc(Cl)cc1)C(=O)c1ccccc1S2 | 3.55 µM [falling, full curve]
O=C(Nc1sc2c(c1C(=O)O)CCCC2)c1ccc(Cl)cc1 | 0.0794 µM [falling, full curve]

2 of the compounds above, with each value named.
O=C(Nc1ccc(F)cc1)Nc1cc(OCC(F)(F)F)cc(OCC(F)(F)F)c1
  AC50: 20.6 µM [falling, single point]
O=C(NCc1ccco1)c1ccc2c(c1)N(Cc1ccc(Cl)cc1)C(=O)c1ccccc1S2
  AC50: 3.55 µM [falling, full curve]
